# Test results from PubChem BioAssay AID493014 (National Center for Advancing Translational Sciences (NCATS), 2011).
# Some of the results follow. The main result of the screen is listed elsewhere. These columns were measured beside it and carry no call. Most of these compounds were active or inconclusive in the main read-out, so they are no random draw. Words in brackets tell the shape of the fitted curve; partial curves, single points and poor fits give uncertain potencies.
# Assay: qHTS Assay to Find Inhibitors of Chronic Active B-Cell Receptor Signaling
# Conditions: ABC-DLBCL IkBa-CBG/CBR reporter, luminescence ratio (green luciferase fused to IkBa over red control in TMD8 lymphoma cells), 4 h
# Method in brief: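 Cell line TMD8 (human ABC DLBCL), stably expressing tet-inducible CBG68-IkBa fusion and CBR; IMDM/0.5% FBS; cpd up to 46 uM; dox induction, 4 h, 37C/5% CO2; dual luminescence; green/red ratio; MG132 control.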
# [1] = measured here: CBR red luminescence, cell number
# [2] = measured here: IkBa-CBG green luminescence
Compound,AC50 [1],AC50 [2]
COC(=O)c1ccc(C#Cc2ccccc2)o1,"0.794 µM [rising, full curve]",
CN(Cc1ccccc1)C(=O)COc1ccc(Br)cc1Cl,"0.794 µM [rising, full curve, poor fit]",
COC(=O)c1cc(=O)n(-c2ccc(F)cc2)c(=Nc2ccc(F)cc2)s1,"18.4 µM [falling, partial curve, poor fit]","25.9 µM [falling, single point]"
CN(C)c1nc(N(C)C)nc(N(C#N)Cc2ccc(Cl)cc2)n1,"25.1 µM [rising, single point]",
Cc1ccc(OCC(=O)NC(=S)Nc2ccc(Br)cn2)cc1,"12.6 µM [rising, single point]",
CC(C)Cc1nc(N2CCN(C(=O)c3ccco3)CC2)c(C#N)c2c1CCC2,"35.5 µM [falling, single point]",
COc1cccc(CN2CCN(c3ncccn3)CC2)c1,"35.5 µM [falling, single point]",
CSc1ccccc1NC(=O)c1noc2c1CCC2,"2.91 µM [falling, partial curve, poor fit]",
O=C(O)c1ccc(-n2c(-c3ccccc3)n[nH]c2=S)cc1,"7.94 µM [falling, partial curve, poor fit]",
Cc1ccc(-c2nn(C)c(=O)c3ccccc23)cc1S(=O)(=O)N1CCCC1,"29.1 µM [rising, single point]",
COc1cc2[nH]c3c(N4CCN(c5ccccn5)CC4)ncnc3c2cc1OC,"15.8 µM [falling, single point]",
COc1ccc(-c2nc3c4ccccc4ccn3c2CN2CCOCC2)cc1OC,"1.26 µM [rising, full curve]",
O=C(Nc1ccc2ncccc2c1)Nc1ccc2ncccc2c1,"0.794 µM [rising, full curve]",
Cc1nc(NCc2ccco2)c2c3c(sc2n1)CCC3,"5.01 µM [rising, partial curve]",
N#CCCn1nc(-c2ccccc2)cc1Nc1ccccc1NC(=O)C(F)(F)F,"7.31 µM [falling, partial curve, poor fit]",
CCOc1ccccc1C(=O)NCCCN1CCN(CCCNC(=O)c2ccccc2OCC)CC1,"7.31 µM [rising, single point]",
Cc1ccc(OCCCCN2CCc3ccccc3C2)cc1,"5.01 µM [rising, full curve]",
C/C(=N\NC(=O)c1ccoc1C)c1ccccc1,"12.6 µM [falling, partial curve, poor fit]",
Cc1ccc2c(c1)c1nc3ccccc3nc1n2CCN1CCOCC1,"0.00651 µM [rising, full curve, poor fit]",
COc1ccccc1CNc1ncnc2c1nnn2Cc1ccccc1,"0.562 µM [falling, full curve]",
O=C(NC1CCCC1)c1cc(-c2ccc(F)cc2)on1,"1.12 µM [falling, full curve]",

# Individual results from the results shown:
# For AC50 [2], COC(=O)c1cc(=O)n(-c2ccc(F)cc2)c(=Nc2ccc(F)cc2)s1 reads 25.9 µM [falling, single point]
# For AC50 [1], Cc1nc(NCc2ccco2)c2c3c(sc2n1)CCC3 reads 5.01 µM [rising, partial curve]

# Additional compounds follow.

Compound,AC50 [1],AC50 [2]
Nc1ncnc2c1ncn2[C@@H]1O[C@H](CNCC(O)CO)[C@@H](O)[C@H]1O (stereo partly drawn),"10.3 µM [rising, partial curve, poor fit]",
Cc1no[n+]([O-])c1COc1cccc(/C=N/Nc2nncn2N)c1,"35.5 µM [falling, single point]",
Cc1ccccc1C(=O)Nc1nnc(-c2ccco2)s1,"6.31 µM [falling, partial curve, poor fit]",
CC(=O)NCCNC(=O)CCNC(=O)c1ccc(Cl)cc1,"6.51 µM [falling, single point]",
CCC(C)(C)n1nnnc1C(c1cc2cc(C)cc(C)c2[nH]c1=O)N1CCN(Cc2ccc3c(c2)OCO3)CC1 (stereo not drawn),"29.1 µM [falling, single point]",
COc1ccc(C2=NO[C@@H]3C(=O)N(c4cccc(C)c4C)C(=O)[C@H]23)cc1OC,"3.66 µM [rising, partial curve, poor fit]",
COc1ccc(CN2CC(C(=O)NCCN3CCOCC3)CC2=O)cc1 (stereo not drawn),"0.366 µM [rising, full curve, poor fit]",
CCN1CCSc2ccc(C(=O)NCc3ccccc3C)cc21,"17.8 µM [falling, single point]",
COC(=O)C(C)Sc1snnc1-c1ccccc1 (stereo not drawn),"23.1 µM [rising, partial curve, poor fit]",
C=CCCN([C@@H](C)C(=O)OC)S(=O)(=O)c1ccccc1Br,"6.31 µM [rising, single point]",
O=C(/C=C/c1ccccc1Cl)OCC(=O)c1ccc[nH]1,"0.82 µM [rising, full curve, poor fit]",
CCOC(=O)c1cnc2ccc(C)cc2c1Sc1ccccc1,"2.91 µM [falling, full curve, poor fit]",
Cc1ccc(CONC(=O)c2cccc(C)c2)cc1,"3.26 µM [falling, partial curve, poor fit]",
COc1ccccc1CN1CN(S(=O)(=O)c2ccccc2)c2nc3ccccc3nc21,"35.5 µM [falling, single point]",
CCN(C(=O)COC(=O)CNC(=O)C12CC3CC(CC(C3)C1)C2)C1CCS(=O)(=O)C1 (stereo not drawn),"0.00366 µM [rising, full curve, poor fit]",
CCC(C)NC(=O)C(NS(=O)(=O)c1cccc2nsnc12)c1ccccc1 (stereo not drawn),"11.2 µM [rising, partial curve, poor fit]",
CCOC(=O)N1CCN(CC(=O)Nc2cc(OCC)ccc2OCC)CC1,"32.6 µM [rising, single point]",
COc1cc(/C=C/C(=O)OCC(=O)NCCc2ccccc2)ccc1OC(F)F,"10 µM [rising, partial curve, poor fit]",
O=C(/C(=C\c1ccccc1)c1nc2ccccc2[nH]1)c1ccc(Cl)cc1,"16.4 µM [falling, single point]","29.1 µM [rising, partial curve, poor fit]"
O=C(CN1CCN(C(=O)c2cncn2-c2ccccc2)CC1)Nc1ccccc1Cl,"23.1 µM [falling, single point]",
